The values that follow come from patent US20250084405.

Chains of the proteins cited; added tags and fusions are not shown. A line that says so, or that is headed by a name, gives the form on record, which may keep a tag or linker.
MYC:MAX heterodimer (c-MYC / MAX) (Homo sapiens), one chain, as listed by the source, chain 2 of 2: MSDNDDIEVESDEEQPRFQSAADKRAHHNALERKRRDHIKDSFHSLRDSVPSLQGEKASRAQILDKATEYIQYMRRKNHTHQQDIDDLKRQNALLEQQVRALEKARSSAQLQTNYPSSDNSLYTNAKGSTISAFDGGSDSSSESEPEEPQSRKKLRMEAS
MYC:MAX heterodimer (c-MYC / MAX) (Homo sapiens), one chain, as listed by the source, chain 1 of 2: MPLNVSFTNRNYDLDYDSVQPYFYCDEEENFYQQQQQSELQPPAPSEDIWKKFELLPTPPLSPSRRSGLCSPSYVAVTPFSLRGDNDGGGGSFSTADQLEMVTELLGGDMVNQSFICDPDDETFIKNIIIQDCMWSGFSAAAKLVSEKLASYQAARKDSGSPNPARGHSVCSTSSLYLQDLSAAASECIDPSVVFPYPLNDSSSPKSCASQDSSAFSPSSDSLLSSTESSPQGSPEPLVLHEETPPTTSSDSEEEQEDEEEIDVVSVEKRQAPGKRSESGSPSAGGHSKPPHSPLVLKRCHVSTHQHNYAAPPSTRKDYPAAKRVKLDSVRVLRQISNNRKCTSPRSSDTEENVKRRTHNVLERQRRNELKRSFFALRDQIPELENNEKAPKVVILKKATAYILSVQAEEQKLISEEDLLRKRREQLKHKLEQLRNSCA

For at least one entry, the source does not settle the construct or the ends of the probe. Negatives hold for the conditions tested.

In this data set the test system is MYC:MAX heterodimer (c-MYC / MAX) (Homo sapiens). Kind of data set: EMSA. Conditions: 7.5 nM probe, 90-100 ug translated protein, protein translated in vitro, label: IRDye 700. Background: Mobility shift assays separate free from complexed probe on a gel.

In the case of “CACACAAGCACACACGCGCTCACACACAGAGAG (double strand) [FGF7 5' UTR wild-type probe]”, the binding result (complex observed only with mutated probe) was “no binding”.
Turning to “CACACAAGCACACACGTGCTCACACACAGAGAG (double strand) [FGF7 5' UTR mutant probe (E-box CACGTG)]”, the binding result (binding abolished by unlabeled competitor, variant of FGF7 5' UTR wild-type probe) is reported as “binds”.
